Data from patent publication US20190016825A1.
Changes are numbered by the printed parent chain. Results are given in words; binding and its absence hold for the method and conditions named. Some results given as binding are weak or reduced against the parent protein; the word gives no strength.

Amino acid sequences for entries named in this document (tags omitted). A change or cut given only in a name is not applied to a line headed by its entry.
UniProt Q8NBP7: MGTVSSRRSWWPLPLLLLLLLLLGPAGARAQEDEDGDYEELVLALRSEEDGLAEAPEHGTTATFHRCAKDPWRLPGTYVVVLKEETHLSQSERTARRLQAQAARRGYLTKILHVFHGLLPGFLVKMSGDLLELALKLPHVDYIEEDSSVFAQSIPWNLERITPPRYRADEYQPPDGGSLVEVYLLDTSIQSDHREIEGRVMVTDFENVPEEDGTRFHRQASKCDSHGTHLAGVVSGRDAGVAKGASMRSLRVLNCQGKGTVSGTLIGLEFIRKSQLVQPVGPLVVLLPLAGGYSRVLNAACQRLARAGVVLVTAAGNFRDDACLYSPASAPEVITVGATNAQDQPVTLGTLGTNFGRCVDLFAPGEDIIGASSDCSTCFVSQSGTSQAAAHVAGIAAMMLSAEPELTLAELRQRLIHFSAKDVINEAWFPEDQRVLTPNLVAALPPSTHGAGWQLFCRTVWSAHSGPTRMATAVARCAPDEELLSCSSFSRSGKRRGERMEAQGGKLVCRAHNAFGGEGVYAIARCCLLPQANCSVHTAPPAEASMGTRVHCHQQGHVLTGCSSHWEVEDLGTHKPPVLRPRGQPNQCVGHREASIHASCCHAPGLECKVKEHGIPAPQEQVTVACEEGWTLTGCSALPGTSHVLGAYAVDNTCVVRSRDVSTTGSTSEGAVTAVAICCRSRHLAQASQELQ

B1: h001-11 (antibody, human IgG1, V domains shown)
VH: QVQLVQSGAEVKKPGASVKVSCKASGYTFTDYWMHWVRQAPGQGLEWMGYINPSSGFTKYHQNFKDRVTMTRDTSISTAYMELSRLTSDDTAVYYCARQYDYDEDWYFDVWGQGTTVTVSS
VL: DIQMSQSPSSLSASVGDRVTITCKSSQSLLNSRTRKNFLAWYQQKPGKAPKLLIYWASTRESGVPDRFSGSGSGTDFTLTISSLQPEDFATYYCKQSFNLFTFGQGTKLEIK
B2: h001-8 (antibody, human IgG1, V domains shown)
VH: B1 VH with T30N, T87R
VL: B1 VL with Q3V, A49S
B3: h001-22 (antibody, human IgG1, V domains shown)
VH: B1 VH with T30N, R38K, M48I, R67K, V68A, M70L, R72A, T74K
VL: B1 VL with S5T
B4: h001-24 (antibody, human IgG1, V domains shown)
VH: B1 VH with T30N, R38K, M48I, R67K, V68A, M70L, R72A, T74K
VL: B1 VL with Q3V, A49S
B5: h001-7 (antibody, human IgG1, V domains shown)
VH: B1 VH with T30N, T87R
VL: B1 VL
B6: h001-13 (antibody, human IgG1, V domains shown)
VH: B1 VH with T30N
VL: B1 VL with S5T, D66S
B7: h001-5 (antibody, human IgG1, V domains shown)
VH: B1 VH with T30N, T87R
VL: B1 VL with S5T, D66S
B8: h001-17 (antibody, human IgG1, V domains shown)
VH: B1 VH with T30N, R72A, T74K
VL: B1 VL with S5T, D66S
B9: h001-15 (antibody, human IgG1, V domains shown)
VH: B1 VH with T30N
VL: B1 VL
B10: h001-23 (antibody, human IgG1, V domains shown)
VH: B1 VH with T30N, R38K, M48I, R67K, V68A, M70L, R72A, T74K
VL: B1 VL
B11: h001-6 (antibody, human IgG1, V domains shown)
VH: B1 VH with T30N, T87R
VL: B1 VL with S5T
B12: h001-21 (antibody, human IgG1, V domains shown)
VH: B1 VH with T30N, R38K, M48I, R67K, V68A, M70L, R72A, T74K
VL: B1 VL with S5T, D66S
B13: h001-19 (antibody, human IgG1, V domains shown)
VH: B1 VH with T30N, R72A, T74K
VL: B1 VL
B14: h001-16 (antibody, human IgG1, V domains shown)
VH: B1 VH with T30N
VL: B1 VL with Q3V, A49S
B15: h001-14 (antibody, human IgG1, V domains shown)
VH: B1 VH with T30N
VL: B1 VL with S5T
B16: h001-20 (antibody, human IgG1, V domains shown)
VH: B1 VH with T30N, R72A, T74K
VL: B1 VL with Q3V, A49S
B17: h001-2 (antibody, human IgG1, V domains shown)
VH: B1 VH with T87R
VL: B1 VL with S5T
B18: h001-18 (antibody, human IgG1, V domains shown)
VH: B1 VH with T30N, R72A, T74K
VL: B1 VL with S5T
B19: h001-1 (antibody, human IgG1, V domains shown)
VH: B1 VH with T87R
VL: B1 VL with S5T, D66S
B20: h001-9 (antibody, human IgG1, V domains shown)
VH: B1 VH
VL: B1 VL with S5T, D66S
B21: h001-10 (antibody, human IgG1, V domains shown)
VH: B1 VH
VL: B1 VL with S5T
B22: h001-3 (antibody, human IgG1, V domains shown)
VH: B1 VH with T87R
VL: B1 VL
B23: h001-12 (antibody, human IgG1, V domains shown)
VH: B1 VH
VL: B1 VL with Q3V, A49S

molecular target: PCSK9-BP15-His6 (human) (UniProt Q8NBP7); test: ELISA (Test 1)

Row | binding | Binder
1 | binds | B1
2 | binds | B2
3 | binds | B3
4 | binds | B4
5 | binds | B5
6 | binds | B6
7 | binds | B7
8 | binds | B8
9 | binds | B9
10 | binds | B10
11 | binds | B11
12 | binds | B12
13 | binds | B13
14 | binds | B14
15 | binds | B15
16 | binds | B16
17 | binds | B17
18 | binds | B18
19 | binds | B19
20 | binds | B20
21 | binds | B21
22 | binds | B22
23 | binds | B23

molecular target: PCSK9-D374Y-BP15-His6 (human) (UniProt Q8NBP7); test: ELISA (Test 2)

Row | binding | Binder
24 | binds | B1
25 | binds | B2
26 | binds | B3
27 | binds | B4
28 | binds | B5
29 | binds | B6
30 | binds | B7
31 | binds | B8
32 | binds | B9
33 | binds | B10
34 | binds | B11
35 | binds | B12
36 | binds | B13
37 | binds | B14
38 | binds | B15
39 | binds | B16
40 | binds | B17
41 | binds | B18
42 | binds | B19
43 | binds | B20
44 | binds | B21
45 | binds | B22
46 | binds | B23
